According to publication PMC5634478, “Usefulness of kidney slices for functional analysis of apical reabsorptive transporters” (Scientific Reports, 2017):

Test system: Sglt1/2
Assay: Uptake of [14C]αMG by mice kidney slices
Type: in vitro ADME
Settings: [14C]αMG 2.5 μM, pH 7.4, 37 °C, 1-20 min
Description: Uptake studies using mouse kidney slices were carried out as described in a previous report after slight modifications. The slices of whole kidneys were prepared with a microslicer (Zero 1; Dosaka EM, Kyoto, Japan), and the renal pelvis portion was removed. Prepared slices (0.3 mm thick) of whole kidneys from male mice were immediately put in ice-cold oxygenated transport buffer (130 mM NaCl, 4.8 mM KCl, 1.2 mM CaCl2, 1.2 mM MgSO4, 1.2 mM KH2PO4 and 25 mM HEPES, adjusted to pH 7.4). When uptake was conducted in Na^+-free condition, NaCl was replaced with N-methyl-D-glucamine (NMG) in transport buffer. Three or four slices from one mouse, weighing each slice 2 to 10 mg, were randomly selected and then pre-incubated in a 24-well plate with 1.0 ml of oxygenated transport buffer in each well at 37 °C for 5 min. After pre-incubation, the kidney slices were put into transport buffer containing radiolabeled substrates with or without inhibitors to initiate the uptake reaction. […] The apparent uptake of [^14C]inulin was evaluated in independent experiments (n = 3) to estimate the volume of water adhering to the kidney slices after an incubation. […] Viability of the isolated kidney slices was assessed as described in the supplemental file. […]

**Q.** For `CO[C@H]1O[C@H](CO)[C@@H](O)[C@H](O)[C@H]1O` [αMG, methyl-α-D-glucopyranoside], which “uptake in the presence of Na+ versus absence of Na+” value is on record?
**A.** significantly higher
